For some of these results: The name of at least one read-out is uncertain. At least one structure is not confirmed: it was looked up by name or label, or the drawing left a doubt.
What was measured:
[1] = CO release kinetics in the presence of rat liver microsomes, K-phosphate buffer (pH 7.4); format: in vitro ADME; conditions: with microsomes, 10 μM, 37° C.
Procedure: General Method for the CO Release in the Presence of Liver Microsomes
The CO release kinetics of Compounds 1b, 2b, 3b, 4b, and 5b were also evaluated in the presence of rat or human liver microsomes. In a 8-mL vial, the following reagents were combined:
200 μL of 0.5 M potassium phosphate buffer, pH 7.4
50 μL of NADPH regenerating system solution A (BD, Cat. No. 451220)
10 μL of NADPH regenerating system solution B (BD, Cat. No. 451200)
2 μL of 5 mM solution of the compound in DMSO (10 μM final concentration)
The vials were closed and after mixing, the samples were warmed to 37° C. for 5 minutes before an aliquot (25 μL, 0.5 mg protein content) of rat liver microsomes (BD, Cat. No. 452511) or human liver microsomes (BD, Cat. No. 452161) was added to each vial. In parallel analogous vials with all the reagents except the microsomes were prepared. Due to the light-sensitivity of the molybdenum compounds, the reactions were performed in the dark. The samples were incubated at 37° C. and gas samples of the headspace (from 100 μL to 500 μL) of the vials were removed with a gas-tight syringe after 5, 10, 15, 30, and 60 minutes (in some cases samples were also taken at 1, 2, 3 or 4 minutes) upon microsomes addition. The gas samples were then injected into empty sealed vials (8 mL volume) and the amount of CO present in the vials was measured using GC-RCP.
The CO equivalents released at each time point from each compound were determined by the following equation: (CO released (pmol)×number of CO ligands in the molecule)/([CO] in the compound (pmol)). A 1 mL solution of a tri-carbonyl compound, at 50 μM concentration contains a total of 150,000 pmol of CO.

[2] = half-life for CO release in sheep blood using an oximeter; format: in vitro ADME; conditions: 632.1 μg/mL
Procedure: The stability of compound 4b was determined by measuring the release of CO in vitro in 50 mM Hepes buffer (pH 7.4) using a RCP-equipped GC. Compound 4b concentration was 50 μM. […] The half-life for CO release was also measured in sheep blood using an oximeter. A concentration of 632.1 μg/mL of compound 4b was used.
The half-life for CO release was also measured in sheep blood using an oximeter. […] Compound 5b released 0.12 molar equivalents of CO in 3 hours.

Compound	CO release Half-life in the dark (time to release 0.5CO equivalents), Microsomes K-phosphate buffer (pH 7.4) [1]	half-life for CO release in blood in vitro [2]
CC([N+]#[C][Mo-6]([C]#[O+])([C]#[O+])([C]#[O+])([C]#[N+]C(C)C(=O)O)[C]#[N+]C(C)C(=O)O)C(=O)O (stereo not shown) [Compound 2b, tricarbonyl[tris(2-isocyanopropionic acid)]Mo(0)]	30 min.	–
[C-]#[N+]C(C)(C)C(=O)O.[C-]#[N+]C(C)(C)C(=O)O.[C-]#[N+]C(C)(C)C(=O)O.[C-]#[O+].[C-]#[O+].[C-]#[O+].[Mo] [Compound 3b, tricarbonyl[tris(2-isocyano-2-methyl-propionic acid)]Mo(0)]	13 min	–
O=C([O-])CC([N+]#[C][Mo-6]([C]#[O+])([C]#[O+])([C]#[O+])([C]#[N+]C(CC(=O)[O-])C(=O)[O-])[C]#[N+]C(CC(=O)[O-])C(=O)[O-])C(=O)[O-].[Li+].[Li+].[Li+].[Li+].[Li+].[Li+] (stereo not shown) [Compound 4b, tricarbonyl[tris(lithium 2-isocyanosuccinate)]Mo(0)]	–	about 2.5 hours
tricarbonyl[tris(isocyanoacetic acid)]Mo(0) [Compound 1b]	20 min	–

Reference: patent US9163044B2, “Carbon monoxide releasing molecules and uses thereof” (Alfama, Inc., priority 2011, dated 2015)
